Results are given in words; binding and its absence hold for the method and conditions named. For part of these data: In cells and extracts the contact can be indirect. Some binding calls cover weakened binding; strength is not graded here. Blank lines part the entries; values can stand above or below the binder they belong to.
Assays:
[1] = target: T1, yeast Elp6 (subunit of yElp456) (yeast) (UniProt Q04868); assay: SEC; three subunits co-expressed and purified as one complex (human, murine: Hi-5 cells, IgG agarose via Protein A on Elp6, TEV cleavage); gel filtration on Superose 6 Increase 10/300 GL by the legend (S200 Increase 10/300 GL by the methods), 20 mM HEPES pH 7.5, 100 mM NaCl, 2 mM MgCl2, 5 mM DTT; eluted at ~220 kDa; production of the yeast complex not told; both purified
T1 sequence: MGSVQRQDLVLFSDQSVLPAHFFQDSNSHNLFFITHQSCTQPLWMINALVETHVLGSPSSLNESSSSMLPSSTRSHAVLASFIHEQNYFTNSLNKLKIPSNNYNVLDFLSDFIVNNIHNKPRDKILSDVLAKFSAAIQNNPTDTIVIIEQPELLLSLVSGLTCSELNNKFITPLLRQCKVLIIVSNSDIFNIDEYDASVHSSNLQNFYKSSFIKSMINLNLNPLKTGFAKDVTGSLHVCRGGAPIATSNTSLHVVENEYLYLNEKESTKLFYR

[2] = target: T2, human ELP1, endogenous in fibroblasts (human (endogenous in fibroblasts)) (UniProt O95163); assay: co-IP; whole cell lysates of control and patient-derived fibroblasts (0.5% Triton X-100, 50 mM Tris/HCl pH 7.5, 1 mM EDTA, 150 mM NaCl), ELP1 antibody and protein A magnetic beads; blots for ELP1, ELP3, ELP4, ELP5, α-tubulin
T2 sequence: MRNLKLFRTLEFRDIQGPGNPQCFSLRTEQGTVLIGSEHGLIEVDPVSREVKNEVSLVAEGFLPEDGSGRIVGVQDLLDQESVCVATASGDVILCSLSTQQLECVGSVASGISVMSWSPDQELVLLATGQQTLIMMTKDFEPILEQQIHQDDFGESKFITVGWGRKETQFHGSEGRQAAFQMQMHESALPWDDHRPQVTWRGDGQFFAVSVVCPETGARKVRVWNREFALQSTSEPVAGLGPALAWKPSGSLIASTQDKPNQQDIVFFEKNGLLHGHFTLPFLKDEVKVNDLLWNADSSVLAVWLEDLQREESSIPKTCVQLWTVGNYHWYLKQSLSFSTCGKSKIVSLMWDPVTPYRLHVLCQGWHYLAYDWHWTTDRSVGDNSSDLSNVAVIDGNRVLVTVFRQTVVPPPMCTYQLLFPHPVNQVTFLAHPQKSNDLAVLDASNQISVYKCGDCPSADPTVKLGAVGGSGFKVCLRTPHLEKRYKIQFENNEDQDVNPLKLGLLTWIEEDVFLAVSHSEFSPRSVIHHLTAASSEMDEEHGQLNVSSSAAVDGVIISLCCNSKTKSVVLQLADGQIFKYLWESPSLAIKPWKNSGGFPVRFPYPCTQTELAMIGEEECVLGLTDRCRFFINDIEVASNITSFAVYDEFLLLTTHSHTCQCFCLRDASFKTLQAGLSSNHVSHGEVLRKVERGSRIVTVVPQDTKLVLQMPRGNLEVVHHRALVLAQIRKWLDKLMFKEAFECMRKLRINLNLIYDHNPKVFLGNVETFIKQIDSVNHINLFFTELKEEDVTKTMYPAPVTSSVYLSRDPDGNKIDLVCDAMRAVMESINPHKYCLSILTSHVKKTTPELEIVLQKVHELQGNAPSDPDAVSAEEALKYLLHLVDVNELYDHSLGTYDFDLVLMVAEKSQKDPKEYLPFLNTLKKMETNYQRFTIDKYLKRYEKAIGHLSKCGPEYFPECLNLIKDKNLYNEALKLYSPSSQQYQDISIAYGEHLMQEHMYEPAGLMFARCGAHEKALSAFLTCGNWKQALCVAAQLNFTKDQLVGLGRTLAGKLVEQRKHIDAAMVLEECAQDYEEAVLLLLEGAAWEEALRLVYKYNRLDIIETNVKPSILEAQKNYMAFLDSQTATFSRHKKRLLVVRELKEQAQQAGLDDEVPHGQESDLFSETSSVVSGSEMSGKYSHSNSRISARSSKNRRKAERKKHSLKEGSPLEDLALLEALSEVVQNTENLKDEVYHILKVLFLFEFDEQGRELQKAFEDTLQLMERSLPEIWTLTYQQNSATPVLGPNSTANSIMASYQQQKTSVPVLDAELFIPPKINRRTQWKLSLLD

[3] = target: T3, human Elp5 (subunit of hElp456) (Homo sapiens) (UniProt Q8TE02); assay: cryo-EM structure; purified Elp456 subcomplexes, single particle analysis, C2 symmetry; homology models (template yeast Elp456) fitted into the maps; both purified
T3 sequence: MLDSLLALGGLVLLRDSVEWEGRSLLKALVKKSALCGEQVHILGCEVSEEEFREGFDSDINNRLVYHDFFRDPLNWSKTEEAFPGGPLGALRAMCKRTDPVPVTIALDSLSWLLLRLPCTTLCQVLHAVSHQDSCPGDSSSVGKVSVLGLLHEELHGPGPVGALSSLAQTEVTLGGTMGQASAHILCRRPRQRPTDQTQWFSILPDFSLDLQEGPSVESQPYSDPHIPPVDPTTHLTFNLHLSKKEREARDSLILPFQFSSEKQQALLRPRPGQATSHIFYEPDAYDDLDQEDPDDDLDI

[4] = target: T4, human Elp6 (subunit of hElp456) (Homo sapiens) (UniProt Q0PNE2); assay: as above
T4 sequence: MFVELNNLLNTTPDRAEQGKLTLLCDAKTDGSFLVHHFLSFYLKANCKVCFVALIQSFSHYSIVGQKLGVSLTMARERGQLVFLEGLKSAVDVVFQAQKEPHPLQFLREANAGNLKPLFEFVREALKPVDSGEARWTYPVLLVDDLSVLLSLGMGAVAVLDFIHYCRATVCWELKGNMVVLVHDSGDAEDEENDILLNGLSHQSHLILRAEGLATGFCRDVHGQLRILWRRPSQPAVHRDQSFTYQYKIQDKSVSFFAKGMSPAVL

[5] = target: T4, human Elp6 (subunit of hElp456) (Homo sapiens); assay: SEC; three subunits co-expressed and purified as one complex (human, murine: Hi-5 cells, IgG agarose via Protein A on Elp6, TEV cleavage); gel filtration on Superose 6 Increase 10/300 GL by the legend (S200 Increase 10/300 GL by the methods), 20 mM HEPES pH 7.5, 100 mM NaCl, 2 mM MgCl2, 5 mM DTT; eluted at ~220 kDa; production of the yeast complex not told; both purified

B3: human Elp4 (subunit of hElp456) (protein, UniProt Q96EB1 1-424)
chain: MAAVATCGSVAASTGSAVATASKSNVTSFQRRGPRASVTNDSGPRLVSIAGTRPSVRNGQLLVSTGLPALDQLLGGGLAVGTVLLIEEDKYNIYSPLLFKYFLAEGIVNGHTLLVASAKEDPANILQELPAPLLDDKCKKEFDEDVYNHKTPESNIKMKIAWRYQLLPKMEIGPVSSSRFGHYYDASKRMPQELIEASNWHGFFLPEKISSTLKVEPCSLTPGYTKLLQFIQNIIYEEGFDGSNPQKKQRNILRIGIQNLGSPLWGDDICCAENGGNSHSLTKFLYVLRGLLRTSLSACIITMPTHLIQNKAIIARVTTLSDVVVGLESFIGSERETNPLYKDYHGLIHIRQIPRLNNLICDESDVKDLAFKLKRKLFTIERLHLPPDLSDTVSRSSKMDLAESAKRLGPGCGMMAGGKKHLDF
binding [3]: binds | binding [4]: binds | binding [5]: binds

B4: yeast Elp5 (subunit of yElp456) (protein, UniProt P38874 1-270)
chain: MASSSHNPVILLKRILSLTESSPFILCLDSIAQTSYKLIQEFVHQSKSKGNEYPIVYISFETVNKPSYCTQFIDATQMDFVHLVKQIISYLPAATATQAKKHMVIIDSLNYISTEYITRFLSEIASPHCTMVATYHKDIKDENRTVIPDWNNNYPDKLTLLQFMATTIVDIDVVLTGTLDTEEVSELLNEFRIPRGLNNDIFQLRLVNKRKSGRSLEYDFIVNSNTHEYELLSTTKQEEESSSNGLETPEMLQGLTTFNLGTSNKQKLAK
binding [1]: binds

More lines, now with the values ahead:

binding [1]: binds
B1: yeast Elp4 (subunit of yElp456) (protein, UniProt Q02884 1-456)
chain: MSFRKRGEILNDRGSGLRGPLLRGPPRTSSTPLRTGNRRAPGNVPLSDTTARLKKLNIADESKTKMGLDSSHVGVRPSPATSQPTTSTGSADLDSILGHMGLPLGNSVLVEEQSTTEFHSILGKLFAAQGIVHNRISDSSADKTRNGDTHVIVLSLNQMFAKELPGIYKGSRKQMKKNLISEEESKVTVQNLNETQRSTPSRYKDLKIAWKYKLADEKRLGSPDRDDIQQNSEYKDYNHQFDITTRLMPAPIASELTFIAPTQPVSTILSQIEQTIKRNDKKLIRIVIPSLLHPAMYPPKMFESSEIIGLMHGVRSLVKKYYERVVLFASISIDIITPPLLVLLRNMFDSVINLEPFNQEMTEFLERVYKSQPGKIQHGLVHILKLPVFTDRGEMRVLKSEWAFKNGRKKFEIEQWGIPVDDAEGSAASEQSHSHSHSDEISHNIPAKKTKISLDY

binding [2]: binds
B2: human ELP5, endogenous in fibroblasts (protein, UniProt Q8TE02 1-300)
chain: MLDSLLALGGLVLLRDSVEWEGRSLLKALVKKSALCGEQVHILGCEVSEEEFREGFDSDINNRLVYHDFFRDPLNWSKTEEAFPGGPLGALRAMCKRTDPVPVTIALDSLSWLLLRLPCTTLCQVLHAVSHQDSCPGDSSSVGKVSVLGLLHEELHGPGPVGALSSLAQTEVTLGGTMGQASAHILCRRPRQRPTDQTQWFSILPDFSLDLQEGPSVESQPYSDPHIPPVDPTTHLTFNLHLSKKEREARDSLILPFQFSSEKQQALLRPRPGQATSHIFYEPDAYDDLDQEDPDDDLDI
